Measurements taken from the supplement of paper PMC4604168 (melanoma cell lines).
Some of the results follow. Single values are uncertain, as repeats are few or missing.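 Imaging used 1,536-well plates; nuclei positive for cleaved PARP by antibody were divided by total DNA-stained nuclei to yield the apoptosis fraction. Doses for screening kept most cells viable, and cell lines differ markedly in resting and induced cleaved-PARP levels.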

Assays:
Experiment in all cases: cleaved PARP positive nuclei fraction relative to DMSO control; melanoma cells; higher = more apoptosis
Conditions in all cases: library dose: low library concentration; 72 h
[1] = test system: CBRC034 (line from a melanoma biopsy)
[2] = test system: COLO792
[3] = test system: COLO800
[4] = test system: COLO829
[5] = test system: G361
[6] = test system: IPC-298
[7] = test system: IST-MEL1
[8] = test system: LB2518-MEL
[9] = test system: LOXIMVI
[10] = test system: MEL-HO

Structure (SMILES) | cleaved PARP positive nuclei fraction [1] [%] | cleaved PARP positive nuclei fraction [2] [%] | cleaved PARP positive nuclei fraction [3] [%] | cleaved PARP positive nuclei fraction [4] [%] | cleaved PARP positive nuclei fraction [5] [%] | cleaved PARP positive nuclei fraction [6] [%] | cleaved PARP positive nuclei fraction [7] [%] | cleaved PARP positive nuclei fraction [8] [%] | cleaved PARP positive nuclei fraction [9] [%] | cleaved PARP positive nuclei fraction [10] [%]
C[C@]12O[C@H](C[C@]1(O)CO)n1c3ccccc3c3c4c(c5c6ccccc6n2c5c31)CNC4=O [Lestaurtinib] + N.N.[Cl][Pt][Cl] [cisplatin] (first compound 0.004 µM, partner dose 1.6 µM) | 66.9 | 100 | 81.2 | 64.7 | 110 | 89.5 | 59.5 | 96.6 | 143 | 87.1
Cn1cc(C2=C(c3cn(C4CCN(Cc5ccccn5)CC4)c4ccccc34)C(=O)NC2=O)c2ccccc21 [Enzastaurin] + C=CCNC1=C2C[C@@H](C)C[C@H](OC)[C@H](O)[C@@H](C)/C=C(\C)[C@H](OC(N)=O)[C@@H](OC)/C=C\C=C(/C)C(=O)NC(=CC1=O)C2=O [Tanespimycin] (first compound 0.8 µM, partner dose 0.002 µM) | 66.9 | 36.9 | 55.4 | 128 | 68.1 | 43.9 | 52.8 | 121 | 50.9 | 91.9
Cn1cc(C2=C(c3cn(C4CCN(Cc5ccccn5)CC4)c4ccccc34)C(=O)NC2=O)c2ccccc21 [Enzastaurin] + CCCCCCCCc1ccc(CCC(N)(CO)CO)cc1 [fingolimod] (first compound 0.8 µM, partner dose 2 µM) | 92.1 | 66.5 | 211 | 127 | 97.8 | 42.3 | 60.6 | 99.9 | 59.4 | 53.5
CCCCCCCCCCCCCCCCCCOP(=O)([O-])OC1CC[N+](C)(C)CC1 [Perifosine] + C[As](C)SC[C@H](NC(=O)CC[C@H](N)C(=O)O)C(=O)NCC(=O)O [Darinaparsin] (first compound 0.4 µM, partner dose 0.4 µM) | 148 | 96.5 | 144 | 75.3 | 120 | 53.5 | 120 | 87.3 | 50.9 | 126
N.N.[Cl][Pt][Cl] [cisplatin] + O=C(O)[C@@H]1[O][Sb](=[O])([O][Sb]2(=[O])[O][C@H]([C@H](O)CO)[C@H](O)[C@H](C(=O)O)[O]2)[O][C@H]([C@H](O)CO)[C@@H]1O [stibogluconate] (first compound 1.6 µM, partner dose 2 µM) | 124 | 162 | 255 | 121 | 44.5 | 123 | 91 | 106 | 73.6 | 155
COc1ccc(C2=N[C@@H](c3ccc(Cl)cc3)[C@@H](c3ccc(Cl)cc3)N2C(=O)N2CCNC(=O)C2)c(OC(C)C)c1 [Nutlin-3] + C[As](C)SC[C@H](NC(=O)CC[C@H](N)C(=O)O)C(=O)NCC(=O)O [Darinaparsin] (first compound 0.1 µM, partner dose 0.4 µM) | 129 | 25.4 | 83.1 | 88.9 | 58.1 | 44.5 | 451 | 60.5 | 89.5 | 104
COc1cc([C@@H]2c3cc4c(cc3[C@@H](O[C@@H]3O[C@@H]5CO[C@@H](C)O[C@H]5[C@H](O)[C@H]3O)[C@H]3COC(=O)[C@H]23)OCO4)cc(OC)c1O [etoposide] + C[C@]12O[C@H](C[C@]1(O)CO)n1c3ccccc3c3c4c(c5c6ccccc6n2c5c31)CNC4=O [Lestaurtinib] (first compound 0.02 µM, partner dose 0.004 µM) | 59.1 | 122 | 120 | 51.2 | 72.2 | 136 | 58.2 | 164 | 100 | 35.8
Cn1cc(C2=C(c3cn(C4CCN(Cc5ccccn5)CC4)c4ccccc34)C(=O)NC2=O)c2ccccc21 [Enzastaurin] + C[C@]1(c2nc3c(C(N)=O)cccc3[nH]2)CCCN1 [Veliparib] (first compound 0.8 µM, partner dose 1.4 µM) | 79.2 | 128 | 79.1 | 91.9 | 91.3 | 81.4 | 30.9 | 55.4 | 125 | 57.2
CS(=O)(=O)c1ccc(C(=O)Nc2ccc(Cl)c(-c3ccccn3)c2)c(Cl)c1 [vismodegib] + N.N.[Cl][Pt][Cl] [cisplatin] (first compound 1 µM, partner dose 1.6 µM) | 121 | 57.5 | 39.9 | 73.3 | 59.8 | 166 | 64.8 | 198 | 110 | 132
C[C@]12O[C@H](C[C@]1(O)CO)n1c3ccccc3c3c4c(c5c6ccccc6n2c5c31)CNC4=O [Lestaurtinib] + CCCCCCCCc1ccc(CCC(N)(CO)CO)cc1 [fingolimod] (first compound 0.004 µM, partner dose 2 µM) | 104 | 87.7 | 89.2 | 65.5 | 116 | 44.5 | 316 | 98.2 | 183 | 119
CC[C@]1(O)C[C@H]2CN(CCc3c([nH]c4ccccc34)[C@@](C(=O)OC)(c3cc4c(cc3OC)N(C=O)[C@H]3[C@@](O)(C(=O)OC)[C@H](OC(C)=O)[C@]5(CC)C=CCN6CC[C@]43[C@@H]65)C2)C1 [vincristine] + N.N.[Cl][Pt][Cl] [cisplatin] (first compound 0.0001 µM, partner dose 1.6 µM) | 92.6 | 78.9 | 169 | 123 | 68.8 | 84 | 259 | 110 | 200 | 153
CC1(C)CCC(c2ccc(Cl)cc2)=C(CN2CCN(c3ccc(C(=O)NS(=O)(=O)c4ccc(N[C@H](CCN5CCOCC5)CSc5ccccc5)c(S(=O)(=O)C(F)(F)F)c4)cc3)CC2)C1 + N.N.[Cl][Pt][Cl] [cisplatin] (first compound 0.4 µM, partner dose 1.6 µM) | 159 | 432 | 44.8 | 193 | 127 | 81.5 | 117 | 122 | 144 | 51.6
N.N.[Cl][Pt][Cl] [cisplatin] + Nc1ncn([C@H]2C[C@H](O)[C@@H](CO)O2)c(=O)n1 [decitabine] (first compound 1.6 µM, partner dose 0.1 µM) | 83.5 | 126 | 115 | 285 | 274 | 238 | 207 | 122 | 177 | 34.6
Cc1cc(Nc2cc(N3CCN(C)CC3)nc(Sc3ccc(NC(=O)C4CC4)cc3)n2)n[nH]1 [Tozasertib] + Cn1cc(C2=C(c3cn(C4CCN(Cc5ccccn5)CC4)c4ccccc34)C(=O)NC2=O)c2ccccc21 [Enzastaurin] (first compound 0.006 µM, partner dose 0.8 µM) | 68.4 | 56 | 380 | 154 | 151 | 88 | 64.1 | 63.5 | 85.8 | 180
O=C(Nc1cc(C(F)(F)F)cc(C(F)(F)F)c1)c1cc(Cl)ccc1O + N.N.[Cl][Pt][Cl] [cisplatin] (first compound 0.016 µM, partner dose 1.6 µM) | 34 | 169 | 85.2 | 41.4 | 179 | 44.3 | 128 | 108 | 115 | 148
O=C(/C=C/c1cccnc1)NCCCCC1CCN(C(=O)c2ccccc2)CC1 + Cn1cc(C2=C(c3cn(C4CCN(Cc5ccccn5)CC4)c4ccccc34)C(=O)NC2=O)c2ccccc21 [Enzastaurin] (first compound 0.01 µM, partner dose 0.8 µM) | 1330 | 548 | 202 | 102 | 3770 | 401 | 158 | 388 | 24.3 | 83.2
NC(=O)c1ccc(N(C(N)=O)c2c(F)cccc2F)nc1-c1ccc(F)cc1F + N.N.[Cl][Pt][Cl] [cisplatin] (first compound 0.4 µM, partner dose 1.6 µM) | 113 | 93.6 | 84.2 | 105 | 99.1 | 107 | 61.6 | 110 | 387 | 55.2
N.N.[Cl][Pt][Cl] [cisplatin] + C[C@]1(c2nc3c(C(N)=O)cccc3[nH]2)CCCN1 [Veliparib] (first compound 1.6 µM, partner dose 1.4 µM) | 79.5 | 171 | 153 | 113 | 138 | 132 | 176 | 99.5 | 92.8 | 62
Cn1cc(C2=C(c3cn(C4CCN(Cc5ccccn5)CC4)c4ccccc34)C(=O)NC2=O)c2ccccc21 [Enzastaurin] + CCN(CC)CCNC(=O)c1c(C)[nH]c(/C=C2\C(=O)Nc3ccc(F)cc32)c1C [sunitinib] (first compound 0.8 µM, partner dose 0.4 µM) | 195 | 49.3 | 213 | 62.5 | 79.2 | 125 | 117 | 88.8 | 119 | 46.1
C[C@]1(O)C[C@@H](c2nc(-c3ccc4ccc(-c5ccccc5)nc4c3)c3c(N)nccn32)C1 + N.N.[Cl][Pt][Cl] [cisplatin] (first compound 0.4 µM, partner dose 1.6 µM) | 156 | 80.9 | 138 | 114 | 113 | 122 | 59.3 | 118 | 87.4 | 188
N.N.[Cl][Pt][Cl] [cisplatin] + CO[C@H]1C[C@@H]2CC[C@@H](C)[C@@](O)(O2)C(=O)C(=O)N2CCCC[C@H]2C(=O)O[C@H]([C@H](C)C[C@@H]2CC[C@@H](OCCO)[C@H](OC)C2)CC(=O)[C@H](C)/C=C(\C)[C@@H](O)[C@@H](OC)C(=O)[C@H](C)C[C@H](C)/C=C/C=C/C=C/1C [everolimus] (first compound 1.6 µM, partner dose 0.02 µM) | 36.1 | 178 | 89.7 | 92.5 | 191 | 322 | 87.2 | 137 | 60.9 | 193
C[C@@H](Oc1cc(-c2cnn(C3CCNCC3)c2)cnc1N)c1c(Cl)ccc(F)c1Cl [Crizotinib] + C[As](C)SC[C@H](NC(=O)CC[C@H](N)C(=O)O)C(=O)NCC(=O)O [Darinaparsin] (first compound 0.2 µM, partner dose 0.4 µM) | 136 | 42.3 | 32.5 | 110 | 93.9 | 42.1 | 67.1 | 50.9 | 227 | 65.7

Exported as tab-separated lines: part of the list above.
Structure (SMILES)	cleaved PARP positive nuclei fraction [1] [%]	cleaved PARP positive nuclei fraction [2] [%]	cleaved PARP positive nuclei fraction [3] [%]	cleaved PARP positive nuclei fraction [4] [%]	cleaved PARP positive nuclei fraction [5] [%]	cleaved PARP positive nuclei fraction [6] [%]	cleaved PARP positive nuclei fraction [7] [%]	cleaved PARP positive nuclei fraction [8] [%]	cleaved PARP positive nuclei fraction [9] [%]	cleaved PARP positive nuclei fraction [10] [%]
CC[C@]1(O)C[C@H]2CN(CCc3c([nH]c4ccccc34)[C@@](C(=O)OC)(c3cc4c(cc3OC)N(C=O)[C@H]3[C@@](O)(C(=O)OC)[C@H](OC(C)=O)[C@]5(CC)C=CCN6CC[C@]43[C@@H]65)C2)C1 [vincristine] + N.N.[Cl][Pt][Cl] [cisplatin] (first compound 0.0001 µM, partner dose 1.6 µM)	92.6	78.9	169	123	68.8	84	259	110	200	153
CC1(C)CCC(c2ccc(Cl)cc2)=C(CN2CCN(c3ccc(C(=O)NS(=O)(=O)c4ccc(N[C@H](CCN5CCOCC5)CSc5ccccc5)c(S(=O)(=O)C(F)(F)F)c4)cc3)CC2)C1 + N.N.[Cl][Pt][Cl] [cisplatin] (first compound 0.4 µM, partner dose 1.6 µM)	159	432	44.8	193	127	81.5	117	122	144	51.6
